Assay results

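Genome-wide siRNA knockdown in TC32 Ewing sarcoma cells, comparing luciferase light from an NR0B1-promoter reporter with a CMV-promoter reporter 48 hours after transfection. Each siRNA was applied at 20 nM. A z-score of the log NR0B1-over-CMV signal, less the median of siRNAs with the same seed; more negative means a stronger specific loss of the NR0B1 reporter.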

This is part of the screen; most of the strongest results are not listed here. Sequences are the guide (antisense) strand, without overhang.

Sequence	gene	seed-corrected z-score
AUCAUAUCAUCAAUCAUGC	MOV10L1	-0.4905
ACUAUGAUCCCUACGAUGG	TNFRSF10C	0.1826
UUGAGUUUUAACGAAAGUG	CLEC16A	0.2804
GAAGCAGUCGAACUCGCUC	CITED4	0.07465
UUCUGUCCUCCUUCCAUGG	SH3PXD2B	-1.167
UUGAUGUACCAGUUAAACC	FBXO16	0.1388
UCAAAUACAACUGACAGGG	PIGT	0.3717
UUGAUUUUCGUGAUGUUGC	GLTP	0.3469
AAACGGUCCAUGAUCAUUG	CPEB3	-0.5877
UAAAUUUUGCAUACUCAUC	ATR	0.9475
UGACUAAGCAGAUAUGGGC	PELO	-0.3881
UUCUUGACGACUAUGCUGG	KLHDC8A	-0.7784
AGAUAAGCAACAAUUGAGG	ZDHHC17	0.7021
UAAGGAGUGACGGAGAACA	TMEM174	0.4138
UUAGUAGUUGCUCCUGUUC	GBP1	-0.1519
CACAGGCUUGUUACAGACG	KRTAP10-10	-0.5235
UUAUAGAUCAGUCCAUGGA	PPP2R5D	0.6137
UGAAGUCAUGCAUUCUGGC	BRF1	0.4057
UUUCUCACAAUGUUCCAUG	RPS6KB1	0.2718
UUGUCUGACACGUCCAGCG	MATN1	-1.022
UACGUACUCCACAUCGCCG	DBP	-0.2104
UGCACCUUGAGGGACAUGC	ZBTB47	-0.4512
UUGGUCCUAAAUUCAGUGG	ANKRD29	-0.02042
UUCAUAUUUGGUCCACUGC	UQCRB	0.3362
UUAGCAUCGAAGAUGGACG	GAPDHS	-0.4358
UGCACUGACAUCUAAGUUC	CXCL8	-0.08381
UAUUCAUGCAGGAACAAUC	RD3	0.5652
AGAUGUAGUAGAGGAUUCG	LENG8	1.269
UCAAGGAGAAUAAGAAGUC	FAF2	-0.4457
UUCGUUGAGAUCCCACAGC	LOC100422561	-1.198
UGCAGGUCCACAUUCGUUC	DAOA	1.359
UAUGCUUCAAUUGCCGUGC	CCNG1	-0.1298
UUACCAACUUCUCUAGACC	LSM14B	-0.7327
UUUGAGACGACGGCGAAGG	MCOLN1	-0.1358
UUGGUACUGAGAGGUCAUG	TPRX1	0.5214
UUUCUGAAGUCGAGAAACC	CHST4	0.6384
UUCCUUGCGAGCUUUCUCG	MVP	-0.6397
UAUUCCAAGACCUAUGUUC	HAMP	0.2337
UGAACGGAUACAGUGUAGC	DENND2C	-0.07673
UAUCGUUGUAUUCUUGUCG	KEL	-0.8592
UUGUCGAUGACGCCCACUG	CXorf36	-0.856
UCCUCGCUCACCAAUGUCC	VANGL2	0.8873
UUCCCGAUCACAGUGCACU	HMGB3P22	0.9337
UAAUAGGUAGUCUUUCUUC	C1QTNF7	0.7056
UUUCUCUCCACUGCGGUAG	NOV	0.7995
UAAACGACUCAACUGAUCC	SCYL2	-0.2459
UUUCUAUCCACGCCCACUC	PSMC2	-0.004214
UCUGUUUCAGAGCAGAUGC	MPPE1	1.114
UCUCAUCUAACCGGUAGCC	FAM219A	-0.07369

Some entries from above, unchanged:

UAAACGACUCAACUGAUCC against SCYL2 gave seed-corrected z-score -0.2459.
UUGAUUUUCGUGAUGUUGC against GLTP gave seed-corrected z-score 0.3469.
UUACCAACUUCUCUAGACC against LSM14B gave seed-corrected z-score -0.7327.
UAUUCAUGCAGGAACAAUC against RD3 gave seed-corrected z-score 0.5652.
UUAGUAGUUGCUCCUGUUC against GBP1 gave seed-corrected z-score -0.1519.
UGACUAAGCAGAUAUGGGC against PELO gave seed-corrected z-score -0.3881.

From PubChem BioAssay record AID1159506 (NCATS, 2015).